Laboratory results: PubChem BioAssay AID686938 (Drosophila RNAi Screening Center, 2013)

Test: 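Fly genes required for calcium entry once internal stores are emptied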 (primary screen)
System: Drosophila S2R+ cells
Reagents: long dsRNA against Drosophila genes, about 0.25 µg dsRNA per well, roughly 10,000 cells
Time to read-out: 5 days of knock-down before the calcium assay
Treatment: thapsigargin (SERCA pump blocker) to empty calcium stores; entry signal taken 4 min after adding it
Measured: 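Per-well fluo-4 fluorescence in two replicates, unnormalised, measured in resting cells and 4 min after store depletion by the SERCA blocker thapsigargin; ratio of the two present in few wells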
Direction: calcium entry signal: higher = stronger calcium signal after store depletion; entry to resting ratio: higher = more calcium entry relative to resting level; resting calcium signal: higher = higher resting calcium signal
Active means: 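Called when the plate z-score of the entry-to-rest ratio, mean of duplicates, falls below −3; wells with low overall dye signal (Fmax z below −2) or more than five off-targets excluded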
Meaning of the calls: active = strongly reduced calcium entry; inactive = no strong reduction
In all, the deposit lists about 23,000 reagents; this is an unselected part of those that have a named target and a result. Of all reagents, 75 (0.33%) were called active. 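Raw plate signals without normalisation; calls rest on plate z-scores that were not deposited; ratio present for only 364 wells.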 A plus sign joins genes that one reagent is predicted to hit. Not stated in the record: the dose of the treatment.

| Gene | amplicon | calcium entry signal, replicate 1 (fluorescence units) | calcium entry signal, replicate 2 (fluorescence units) | entry to resting ratio | resting calcium signal, replicate 1 (fluorescence units) | resting calcium signal, replicate 2 (fluorescence units) | Outcome |
| --- | --- | --- | --- | --- | --- | --- | --- |
| RhoGAP15B (Rho GTPase activating protein at 15B) | DRSC19924 | 2.67e7 | 2.40e7 | – | 1.30e7 | 1.14e7 | inactive |
| RhoGAP15B (Rho GTPase activating protein at 15B) | DRSC19925 | 4.26e7 | 3.06e7 | – | 2.13e7 | 1.44e7 | inactive |
| CG14439 | DRSC17931 | 3.04e7 | 4.10e7 | – | 1.57e7 | 1.97e7 | inactive |
| CG5568 | DRSC10518 | 3.72e7 | 5.66e7 | – | 2.63e7 | 2.23e7 | inactive |
| CG5568 | DRSC22816 | 3.04e7 | 3.68e7 | – | 1.51e7 | 1.88e7 | inactive |
| alpha-Est4aPsi (pseudo) | DRSC12473 | 3.77e7 | 4.32e7 | – | 1.77e7 | 2.32e7 | inactive |
| CG31219 | DRSC15140 | 4.10e7 | 4.85e7 | – | 5.72e7 | 2.13e7 | inactive |
| CG8519 | DRSC10985 | 3.34e7 | 5.20e7 | – | 1.60e7 | 2.31e7 | inactive |
| CG5516 | DRSC15826 | 4.80e7 | 7.98e7 | – | 2.22e7 | 7.67e7 | inactive |
| CG5516 | DRSC21753 | 2.77e7 | 3.77e7 | – | 1.37e7 | 1.60e7 | inactive |
| tou (toutatis) | DRSC06006 | 2.68e7 | 3.09e7 | – | 1.07e7 | 1.40e7 | inactive |
| tou (toutatis) | DRSC22710 | 4.15e7 | 2.89e7 | – | 1.66e7 | 1.09e7 | inactive |
| alpha-Est5 (alpha-Esterase-5) | DRSC12617 | 2.77e7 | 2.94e7 | – | 1.22e7 | 1.40e7 | inactive |
| fw (furrowed) | DRSC20334 | 4.03e7 | 5.62e7 | – | 1.95e7 | 2.47e7 | inactive |
| CG4592 | DRSC02761 | 4.75e7 | – | – | 2.21e7 | – | inactive |
| CG14326 | DRSC14805 | 3.46e7 | 5.38e7 | – | 1.82e7 | 5.31e7 | inactive |
| Gr58a (Gustatory receptor 58a) | DRSC03910 | 2.43e7 | 4.40e7 | – | 1.12e7 | 1.65e7 | inactive |
| CG3085 | DRSC04335 | 3.54e7 | – | – | 1.70e7 | – | inactive |
| CG16894 | DRSC06634 | 5.54e7 | 5.06e7 | – | 2.47e7 | 2.42e7 | inactive |
| CG16894 | DRSC21785 | 3.33e7 | 4.85e7 | – | 1.79e7 | 2.03e7 | inactive |
| CG43163 | DRSC10748 | 2.67e7 | 4.54e7 | – | 1.33e7 | 1.93e7 | inactive |
| CG1637 | DRSC18865 | 3.63e7 | 3.41e7 | – | 1.82e7 | 1.73e7 | inactive |
| CG1637 | DRSC19748 | 2.23e7 | 3.23e7 | – | 1.09e7 | 1.46e7 | inactive |
| CG1637 | DRSC19749 | 3.80e7 | 5.19e7 | – | 1.94e7 | 2.59e7 | inactive |
| mfrn (mitoferrin) | DRSC15687 | 2.84e7 | 4.05e7 | – | 1.61e7 | 1.78e7 | inactive |
| CG9775 | DRSC12330 | 3.09e7 | 4.12e7 | – | 1.49e7 | 2.70e7 | inactive |
| CG9775 | DRSC22667 | 3.47e7 | 2.61e7 | – | 1.52e7 | 1.17e7 | inactive |
| CG42850 (retired record) | DRSC00872 | 6.63e7 | 3.46e7 | – | 3.19e7 | 1.82e7 | inactive |
| pwn (pawn) | DRSC06035 | 4.14e7 | 3.02e7 | – | 1.96e7 | 1.52e7 | inactive |
| Ice2 (Interacts with the C terminus of ELL 2) | DRSC14268 | 4.57e7 | 3.93e7 | – | 1.92e7 | 1.55e7 | inactive |

A run of entries from the list above:
| Gene | amplicon | calcium entry signal, replicate 1 (fluorescence units) | calcium entry signal, replicate 2 (fluorescence units) | entry to resting ratio | resting calcium signal, replicate 1 (fluorescence units) | resting calcium signal, replicate 2 (fluorescence units) | Outcome |
| --- | --- | --- | --- | --- | --- | --- | --- |
| fw (furrowed) | DRSC20334 | 4.03e7 | 5.62e7 | – | 1.95e7 | 2.47e7 | inactive |
| CG4592 | DRSC02761 | 4.75e7 | – | – | 2.21e7 | – | inactive |
| CG14326 | DRSC14805 | 3.46e7 | 5.38e7 | – | 1.82e7 | 5.31e7 | inactive |
| Gr58a (Gustatory receptor 58a) | DRSC03910 | 2.43e7 | 4.40e7 | – | 1.12e7 | 1.65e7 | inactive |
| CG3085 | DRSC04335 | 3.54e7 | – | – | 1.70e7 | – | inactive |
| CG16894 | DRSC06634 | 5.54e7 | 5.06e7 | – | 2.47e7 | 2.42e7 | inactive |
| CG16894 | DRSC21785 | 3.33e7 | 4.85e7 | – | 1.79e7 | 2.03e7 | inactive |
| CG43163 | DRSC10748 | 2.67e7 | 4.54e7 | – | 1.33e7 | 1.93e7 | inactive |
| CG1637 | DRSC18865 | 3.63e7 | 3.41e7 | – | 1.82e7 | 1.73e7 | inactive |

Continued:
| Gene | amplicon | calcium entry signal, replicate 1 (fluorescence units) | calcium entry signal, replicate 2 (fluorescence units) | entry to resting ratio | resting calcium signal, replicate 1 (fluorescence units) | resting calcium signal, replicate 2 (fluorescence units) | Outcome |
| --- | --- | --- | --- | --- | --- | --- | --- |
| CG16762 | DRSC08493 | 3.13e7 | 3.85e7 | – | 1.62e7 | 1.65e7 | inactive |
| CG7991 | DRSC08609 | 4.12e7 | 4.86e7 | – | 2.15e7 | 2.20e7 | inactive |
| CG1172 | DRSC12182 | 3.26e7 | 2.85e7 | – | 1.59e7 | 1.41e7 | inactive |
| CG1172 | DRSC21954 | 3.49e7 | 3.67e7 | – | 1.72e7 | 2.09e7 | inactive |
| mtDNA-helicase (mitochondrial DNA helicase) | DRSC02912 | 3.45e7 | 5.53e7 | – | 1.74e7 | 2.28e7 | inactive |
| Rpt1 (Regulatory particle triple-A ATPase 1) | DRSC07542 | 1.18e7 | 1.22e7 | – | 8.52e6 | 7.79e6 | inactive |
| Neurochondrin | DRSC12580 | 4.36e7 | 4.97e7 | – | 1.76e7 | 2.07e7 | inactive |
| CG5693 | DRSC02878 | 4.46e7 | 3.46e7 | – | 2.04e7 | 1.53e7 | inactive |
| zye | DRSC11784 | 2.30e7 | 4.23e7 | – | 1.14e7 | 1.83e7 | inactive |
| CG10505 | DRSC04075 | 3.29e7 | 5.34e7 | – | 1.74e7 | 2.31e7 | inactive |
| rswl (roswell) | DRSC06923 | 3.78e7 | 3.74e7 | – | 1.71e7 | 1.77e7 | inactive |
| ARY (retired record) | DRSC20867 | 3.65e7 | 3.76e7 | – | 1.73e7 | 1.85e7 | inactive |
| PXo (P[[i]]-sensitive XPR1 orthologue) | DRSC09734 | 4.13e7 | 2.42e7 | – | 2.63e7 | 1.11e7 | inactive |
| ase (asense) | DRSC18739 | 4.37e7 | 3.70e7 | 2.4 | 1.79e7 | 1.49e7 | inactive |
| Hrb98DE (Heterogeneous nuclear ribonucleoprotein at 98DE) | DRSC16709 | 6.47e7 | 6.46e7 | – | 2.66e7 | 3.01e7 | inactive |
| CG5391 | DRSC15790 | 3.85e7 | 4.28e7 | – | 5.10e7 | 1.75e7 | inactive |
| CG16935 | DRSC06638 | 3.59e7 | 3.42e7 | – | 1.89e7 | 1.58e7 | inactive |
| CG32182 | DRSC09508 | 3.99e7 | 4.02e7 | – | 1.71e7 | 1.86e7 | inactive |
| Uxt (Uxt prefoldin-like subunit) | DRSC01962 | 3.90e7 | 2.40e7 | – | 1.80e7 | 1.16e7 | inactive |
| CG8501 | DRSC07198 | 3.73e7 | 4.24e7 | – | 1.58e7 | 1.99e7 | inactive |
| CG34168 | DRSC01938 | 5.27e7 | 3.30e7 | – | 2.38e7 | 1.65e7 | inactive |
| retinin | DRSC09940 | 5.08e7 | 7.17e7 | – | 2.33e7 | 2.77e7 | inactive |
| CG13896 | DRSC08366 | 4.38e7 | 3.76e7 | – | 2.19e7 | 1.77e7 | inactive |
| CG17177 | DRSC10257 | 7.82e7 | 8.41e7 | – | 3.00e7 | 2.64e7 | inactive |
| CG12535 | DRSC17838 | 4.63e7 | 5.59e7 | 2.1 | 2.17e7 | 2.29e7 | inactive |
| pxb | DRSC13110 | 3.29e7 | 4.87e7 | – | 1.57e7 | 2.16e7 | inactive |
| pxb | DRSC14996 | 2.38e7 | 3.17e7 | – | 1.20e7 | 1.57e7 | inactive |
| pxb | DRSC14997 | 2.26e7 | 3.86e7 | – | 1.19e7 | 5.39e7 | inactive |
| pxb | DRSC22225 | 4.75e7 | 3.73e7 | – | 2.80e7 | 1.78e7 | inactive |
| CG9259 | DRSC03174 | 5.12e7 | 4.43e7 | – | 2.60e7 | 1.95e7 | inactive |
| He + NimB5 | DRSC22876 | 4.27e7 | 3.83e7 | – | 2.27e7 | 1.59e7 | inactive |
| CG15629 | DRSC00464 | 3.33e7 | 3.05e7 | – | 1.58e7 | 1.45e7 | inactive |
| GABA-B-R3 (metabotropic GABA-B receptor subtype 3) | DRSC00561 | 2.71e7 | 2.67e7 | – | 1.40e7 | 1.27e7 | inactive |
| Teh3 (tipE homolog 3) | DRSC08537 | 4.42e7 | 4.26e7 | – | 2.18e7 | 2.00e7 | inactive |
| Zmynd8 (Zinc finger MYND-type containing 8) | DRSC15310 | 2.58e7 | 3.12e7 | – | 1.28e7 | 1.56e7 | inactive |
| CG6674 | DRSC10692 | 5.14e7 | 3.57e7 | – | 3.20e7 | 1.53e7 | inactive |
| Usp30 (Ubiquitin specific protease 30) | DRSC18265 | 4.15e7 | 3.54e7 | – | 1.88e7 | 1.54e7 | inactive |
| CG16825 | DRSC02526 | 2.81e7 | 1.87e7 | – | 1.40e7 | 9.00e6 | inactive |
| CG17134 | DRSC02583 | 2.49e7 | 3.68e7 | – | 1.23e7 | 1.54e7 | inactive |
| apt (apontic) | DRSC04671 | 3.90e7 | – | – | 1.95e7 | – | inactive |
| apt (apontic) | DRSC23278 | 4.99e7 | 3.40e7 | – | 2.28e7 | 1.45e7 | inactive |
| CG15283 | DRSC01980 | 5.07e7 | 3.28e7 | – | 2.28e7 | 1.57e7 | inactive |
| Tre1 (Trapped in endoderm 1) | DRSC18726 | 1.90e7 | 2.94e7 | – | 1.17e7 | 1.70e7 | inactive |
| CG30323 | DRSC07656 | 4.26e7 | 4.07e7 | – | 1.74e7 | 1.95e7 | inactive |
| Arpc5 (Actin-related protein 2/3 complex, subunit 5) | DRSC00730 | 3.44e7 | 3.83e7 | – | 1.77e7 | 1.90e7 | inactive |
